Laboratory results as given in patent US6133016A, “Sphingomonas biodesulfurization catalyst” (Energy BioSystems Corporation, priority 1997, dated 2000).
At least one structure is not confirmed: it was looked up by name or label, or the drawing left a doubt.

System: HPBS desulfinase (DszB, ORF-2, SEQ ID NO.: 4) from Sphingomonas sp. strain AD109, wild type, semi-pure preparation
Assay: Enzyme progress curve analysis of HPBS conversion to 2-hydroxybiphenyl, monitored by fluorescence
Type: biochemical
Conditions: substrate HPBS

O=S(O)c1ccccc1-c1ccccc1O [HPBS, 2-(2-hydroxyphenyl)benzenesulfinate]
Vm (0.023 mg total protein in 3 mL, pH 7.5, 30° C., semi-pure protein): 0.1 µM/min
Km (1 FM HPBS, 0.1 M NaCl, 50 mM phosphate pH 7.5, 30° C., 0.023 mg total protein in 3 mL, integrated Michaelis-Menten fit): 0.3 µM
kcat, more realistic value (assumes preparation is about 25% pure, pH 7.5, 30° C.): ~0.033 s⁻¹
minimum kcat (calculated from Vm with a crude estimate of enzyme concentration, pH 7.5, 30° C.): ≥ 0.0083 s⁻¹
